Pks13 thioesterase: 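Polyketide synthase Pks13, Mycobacterium tuberculosis (UniProt I6X8D2). Enzyme assay of the thioesterase domain of polyketide synthase 13; the read-out is not stated. Concentration: 30 µM. The record gives no direction; the compounds picked for IC50 retests had high values, so higher reads as stronger inhibition. Size under these conditions: about 67,000 compounds, about 300 of them at 50% or above in at least one test.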
LiHisRS: 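Histidine-tRNA ligase, Leishmania infantum (UniProt A4I591). Enzyme assay of histidyl-tRNA synthetase; the read-out is not stated. Concentration: 30 µM. The record gives no direction; compounds that gave an IC50 in retests scored well above the rest, so higher reads as stronger inhibition. The assay is labelled LdHisRS but filed under L. infantum. Of about 69,000 compounds tested this way, about 410 (0.6%) reached 50% or more in at least one test.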

Protein sequences, listed by entry. Tags and fused reporters are not part of them. Residues count along the entry.
UniProt I6X8D2, whole entry: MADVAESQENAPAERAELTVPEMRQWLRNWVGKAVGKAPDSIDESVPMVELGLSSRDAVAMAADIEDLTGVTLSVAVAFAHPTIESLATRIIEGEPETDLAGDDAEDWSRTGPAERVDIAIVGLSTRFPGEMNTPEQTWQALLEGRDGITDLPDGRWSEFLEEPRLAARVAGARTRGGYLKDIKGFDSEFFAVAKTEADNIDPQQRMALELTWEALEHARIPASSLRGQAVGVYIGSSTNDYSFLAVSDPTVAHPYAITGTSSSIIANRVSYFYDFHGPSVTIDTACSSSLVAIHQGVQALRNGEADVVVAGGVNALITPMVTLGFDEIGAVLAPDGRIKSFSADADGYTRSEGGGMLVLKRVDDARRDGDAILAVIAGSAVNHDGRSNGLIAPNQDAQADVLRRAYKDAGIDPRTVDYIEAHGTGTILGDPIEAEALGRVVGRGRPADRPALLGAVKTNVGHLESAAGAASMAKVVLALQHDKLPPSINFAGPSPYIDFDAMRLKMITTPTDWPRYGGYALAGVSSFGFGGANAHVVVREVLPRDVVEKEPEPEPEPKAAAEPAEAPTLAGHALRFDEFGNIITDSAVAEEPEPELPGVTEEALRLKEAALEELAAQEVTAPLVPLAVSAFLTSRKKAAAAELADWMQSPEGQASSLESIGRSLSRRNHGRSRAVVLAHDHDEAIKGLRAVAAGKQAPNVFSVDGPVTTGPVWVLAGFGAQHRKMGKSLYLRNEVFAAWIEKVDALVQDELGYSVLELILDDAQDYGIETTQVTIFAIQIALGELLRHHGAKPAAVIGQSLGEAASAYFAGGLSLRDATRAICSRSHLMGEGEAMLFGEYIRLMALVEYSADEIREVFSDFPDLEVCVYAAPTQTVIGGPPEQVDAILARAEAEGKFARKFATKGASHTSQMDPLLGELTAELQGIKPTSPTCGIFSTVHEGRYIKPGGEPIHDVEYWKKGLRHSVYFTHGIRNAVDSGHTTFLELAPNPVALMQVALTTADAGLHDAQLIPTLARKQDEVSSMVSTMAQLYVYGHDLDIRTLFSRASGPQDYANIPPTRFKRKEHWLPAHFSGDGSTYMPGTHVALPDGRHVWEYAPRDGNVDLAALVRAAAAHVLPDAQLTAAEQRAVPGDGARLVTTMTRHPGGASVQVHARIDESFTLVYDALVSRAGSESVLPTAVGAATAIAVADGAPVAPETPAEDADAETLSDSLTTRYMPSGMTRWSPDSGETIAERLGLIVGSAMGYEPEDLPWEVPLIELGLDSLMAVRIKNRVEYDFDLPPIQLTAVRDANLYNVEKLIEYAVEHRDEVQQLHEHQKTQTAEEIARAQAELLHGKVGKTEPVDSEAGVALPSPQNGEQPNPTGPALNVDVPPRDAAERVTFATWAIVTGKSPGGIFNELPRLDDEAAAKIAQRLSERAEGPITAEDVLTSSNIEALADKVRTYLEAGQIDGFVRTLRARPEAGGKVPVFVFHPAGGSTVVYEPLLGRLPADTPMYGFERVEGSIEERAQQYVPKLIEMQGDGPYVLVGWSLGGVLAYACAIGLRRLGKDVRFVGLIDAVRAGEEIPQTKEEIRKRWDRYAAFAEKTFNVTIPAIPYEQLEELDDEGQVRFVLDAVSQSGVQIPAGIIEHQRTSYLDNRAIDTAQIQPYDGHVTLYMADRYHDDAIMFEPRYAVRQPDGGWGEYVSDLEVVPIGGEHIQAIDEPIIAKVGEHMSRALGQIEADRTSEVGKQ
UniProt A4I591, 1-473: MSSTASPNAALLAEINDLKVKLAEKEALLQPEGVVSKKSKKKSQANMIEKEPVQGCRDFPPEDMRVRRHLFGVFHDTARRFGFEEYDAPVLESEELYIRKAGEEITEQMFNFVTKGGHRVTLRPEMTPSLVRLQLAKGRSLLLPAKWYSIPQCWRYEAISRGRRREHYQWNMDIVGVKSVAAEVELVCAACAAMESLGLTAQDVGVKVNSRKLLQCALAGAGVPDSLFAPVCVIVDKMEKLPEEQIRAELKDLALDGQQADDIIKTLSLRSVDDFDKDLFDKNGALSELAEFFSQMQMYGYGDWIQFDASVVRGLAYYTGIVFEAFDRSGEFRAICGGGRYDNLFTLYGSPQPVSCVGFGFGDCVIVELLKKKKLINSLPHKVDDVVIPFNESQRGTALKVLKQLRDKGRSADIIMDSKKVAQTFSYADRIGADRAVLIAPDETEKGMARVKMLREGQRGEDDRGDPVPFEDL

The filed quantity is “Percent Effect” (%).
The record does not define 0% and 100%; most values in the screen are far below 50% and negative numbers occur (in some assays of this library far below -100).
This is an unselected part of the compounds tested.

SMILES	Pks13 thioesterase	LiHisRS
COc1ccc(C(C)NCCC(N)=O)cc1F (stereo not drawn)	-12.41	24.71
Cc1csc(CNC(=O)Nc2ccc3c(c2)OCO3)n1	-10.27	20.88
O=C(NC[C@H]1C[C@@H]2CCN1C[C@@H]2CN1CCOCC1)Nc1ccccc1	-0.341	16.67
O=S(=O)(C1CC1)N1CCC2(CCCN(c3ncc(F)cn3)C2)C1 (stereo not drawn)	-11.19	18
Cn1ccnc1C1CCN(S(=O)(=O)c2ccc3oc(=O)[nH]c3c2)CC1	8.664	11.29
COCCN1CCN(CCS(C)(=O)=O)CC1C (stereo not drawn)	-9.722	1.818
Cc1ccsc1C(=O)N1Cc2ccccc2C2(CCN(C)CC2)C1	-12.39	3.922
COC1CCN(Cc2csc(C(C)C)n2)CC1	-12.96	9.917
O=C(O)c1c(-c2cccnc2)ncc2c1CCN(Cc1cccnc1)C2	-6.809	-1.818
CC(C)(CN1CCC2(CCOCC2)CC1)N1CCOCC1	-17.93	-1.333
Cn1c(=O)ccn(CC(=O)Nc2cccnc2)c1=O	-7.762	-2.632
CC(=O)NCC(=O)N1CCN(Cc2cccnc2)c2ncccc2C1	1.135	7
O=C1CN(C(=O)C2CCOCC2)CCN1Cc1ccc(Cl)cc1	-16.18	13.13
CCOc1ccc(N(CC(=O)c2ccccc2)C2=NCCCCC2)cc1	-46.55	8.571
c1ccc2[nH]c(C3CCN(Cc4nnc(C5CC5)o4)CC3)nc2c1	7.774	16.44
CC(CN1CCOCC1)NCC1CCN(c2cnn(C)c(=O)c2)CC1 (stereo not drawn)	-5.933	2.885
CCc1nccn1C1CCCN(C(=O)c2csc(C3CC3)n2)C1 (stereo not drawn)	0.213	11.54
O=C(NCCNc1ncccn1)C1CC(=O)N(Cc2ccccn2)C1 (stereo not drawn)	-27.15	-2.632
COCC(=O)N1CCC2(CCc3ccc(F)cc32)CC1	-34.18	17.09
Cc1cccc(-c2nc(CN(Cc3cccs3)CC3CCCO3)no2)c1 (stereo not drawn)	-7.955	2.703
CCc1cc(N(C)CCC(O)c2ccccc2)n2nccc2n1 (stereo not drawn)	17.9	-3.279
O=C(c1ccc(-n2ccnc2)nn1)N1CCCC1CCc1ccccc1 (stereo not drawn)	-27.24	12.7
CC(C)(C)n1cc(C2=CCN(CCNC(N)=O)CC2)cn1	-15.82	3.03
CCc1nc(CCNC(=O)C2CC2)sc1C	-29.21	15.15
CN(C)CCN(Cc1ccc(F)cc1)C(=O)c1ccn(C)c(=O)c1	-9.914	10.62
O=C(Cc1csc(-c2ccco2)n1)N1CCN(c2nccs2)CC1	-2.78	20
CC(C)NC(=O)NCc1ccnc(N(C)C)n1	-30.71	10
Cc1cccc(CN(C(=O)NCc2ccccn2)C2CC2)c1	-8.971	10.91
Cc1ccc(-c2ccnc(NC(C)c3n[nH]c(=O)[nH]3)n2)c(C)n1 (stereo not drawn)	13.84	6.667
COCCCN1CCN([C@@H]2c3ccccc3C3(CCNCC3)[C@H]2O)CC1	-9.22	8.197
Cc1ccnn1CCC(=O)N1C[C@H]2CC[C@@H]1CN(CC(=O)N(C)C)C2	13.48	4.918
CN(C)C(=O)CN1CC[C@@H]2O[C@@H](COCc3cccnc3)CC[C@@H]21	1.462	19
C=C(C)CN(CC)C(=O)CN(C)C1CCc2ccccc21 (stereo not drawn)	-21.28	26.79
CN1CCN(Cc2cccnc2)C(=O)C12CCN(CC1CCOC1)CC2 (stereo not drawn)	-13.1	26
CCOCCNS(=O)(=O)c1ccc2c3c1CCCN3C(=O)CO2	-12.1	-6.78
O=C1CCc2cc(NC(=O)C3CCCN3c3nccs3)ccc2N1 (stereo not drawn)	-25.39	15.74
CCc1ccc(S(=O)(=O)N2CC3(COC(C)(C)OC3)C2)s1	-5.549	15.65
COc1cc(N2CC3(CCN(S(C)(=O)=O)C3)C2)ncn1	-31.95	7.965
COc1ccc(Cc2c(O)nc(SC)n(-c3ccccc3)c2=O)cc1	-3.498	-7.229
COCc1ncn2c1CN(S(=O)(=O)c1cccs1)CCC2	29.28	-2.857
Cn1nccc1CNC(=O)C1CCCCC1	-10.37	10.62
Cc1ccc(-n2c(O)cc(C)c(C#N)c2=O)c(C)c1	-14.34	46.43
CN(C)CCOCC1CN(C(=O)c2cscn2)Cc2ccnn2C1 (stereo not drawn)	-33.69	8.571
O=C(C1CC=CC1)N1CC[C@@H]2O[C@H](COCC3CCOCC3)CC[C@@H]21	-21.75	17.65
CCCC(C)(O)c1cc(C(N)=O)no1 (stereo not drawn)	-13.12	17.2
CCc1[nH]c2c(CNc3cnccn3)cc(F)cc2c1C	-0.8603	18.03
CN1CCCN(C(=O)c2cccc(S(=O)(=O)NCC3(C)COC3)c2)CC1	-7.674	7.937
COCCC(C)NC(=O)c1cc(Br)c2c(c1)OCCO2 (stereo not drawn)	-3.206	10.34
CN(Cc1ccsc1)C(=O)CN1CCCC1Cn1cccn1 (stereo not drawn)	-25.67	24
Cc1cc(C2CCCCN2C(=O)CN2CC3(CCNCC3)OC2=O)no1 (stereo not drawn)	-4.253	13.11
CCc1cnc(N2C[C@H]3CCCC(N(C)Cc4ccccn4)[C@H]3C2)nc1 (stereo partly drawn)	-24.98	8
O=C(c1cnc(O)cn1)N1C[C@@H]2CC[C@H](C1)N(Cc1ccccc1)C2	1.645	20.21
CC(CCN1CCCn2nc(CNS(C)(=O)=O)cc2C1)c1ccccc1 (stereo not drawn)	17.52	5.556

Repeated from the top, 5 entries:

For COc1ccc(C(C)NCCC(N)=O)cc1F (stereo not drawn) the result was Pks13 thioesterase: -12.41%; LiHisRS: 24.71%.
For Cc1csc(CNC(=O)Nc2ccc3c(c2)OCO3)n1 the result was Pks13 thioesterase: -10.27%; LiHisRS: 20.88%.
For O=C(NC[C@H]1C[C@@H]2CCN1C[C@@H]2CN1CCOCC1)Nc1ccccc1 the result was Pks13 thioesterase: -0.341%; LiHisRS: 16.67%.
For O=S(=O)(C1CC1)N1CCC2(CCCN(c3ncc(F)cn3)C2)C1 (stereo not drawn) the result was Pks13 thioesterase: -11.19%; LiHisRS: 18%.
For Cn1ccnc1C1CCN(S(=O)(=O)c2ccc3oc(=O)[nH]c3c2)CC1 the result was Pks13 thioesterase: 8.664%; LiHisRS: 11.29%.

Measurements from “University of Dundee, Small-Polar-MMV Screening Library” (2021), ChEMBL document CHEMBL3988442.